# PubChem BioAssay AID1347423 (Functional Genomics Laboratory (NCATS/FGL), 2020)
# Screen size: about 52,000 sequences; about 210 (0.4%) were called active.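 The calls were made as follows: active = gene whose silencing raises cell survival under the drug, median off-target-corrected z-score across its silencing RNAs 2 or more; inactive = the rest.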 The list shows a part of the results.
# Experiment: Resistance to Poly (ADP-Ribose) Polymerase inhibitor: Gene Identification via Genome-wide siRNA Screen
# Settings: mouse BRCA2 R2336H ES cells, olaparib, CellTiter-Glo viability; hits give high values
# How it was run: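 Mouse BRCA2 R2336H ES cells were reverse-transfected with siRNA (20 nM final), treated at 48 h with 500 nM olaparib, and read by CellTiter-Glo after 72 h. Scores: MAD-based z per siRNA, median per gene, seed off-target correction.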
row,Sequence,z-score
1,GCUACGACGUAACUGACAATT against Rpl3l,inactive: 0.232
2,GGUGUGAAACGAAAAAAGATT against Hivep1,inactive: 0.43
3,CCACUCAACAUGACAACUATT against Chrna2,inactive: -0.0952
4,GGAGAAUGUGCAUAAACUGTT against Pitpn,inactive: -2
5,GCCUUAGAAGUUAACAUGUTT against AI848100,inactive: 0.246
6,GGCCAUGCCUUUGUAUGCUTT against Oatl1,inactive: 2.1
7,GGCGAAUGCAUAAACUAAATT against Abat,inactive: 0.779
8,CGACCUGACCUUUUUUUCCTT against Ipmk,inactive: -0.069
9,GCAAGUCGUAAGCCUCAGGTT against Mrps10,inactive: 0.0595
10,GGUGUCACAUUCUUUUUUUTT against Pcolce2,inactive: 0.35
11,GAGCAGCUGAUCACUGGAATT against Tuba3,inactive: 0.645
12,GCGAGUUGAUGAGCUCUAGTT against Sult1b1,inactive: -1.53
13,GGUUGAAGUCUAUUCUCGATT against Trap1,inactive: 0.329
14,GGAAGAACAGGAAGAAGUGTT against Pank1,inactive: -0.356
15,CGACAUAGCAAUCACAUGATT against Lmo2,inactive: 1.23
16,CGCAAACCUACAGCUCUGATT against Rhox10,inactive: -1.11
17,GCCGGAAUGAAUACAUGCGTT against Elk1,inactive: 1.13
18,CCAAAGUUCCCUUAGCCAUTT against 9830165K03Rik,inactive: 1.04
19,GGUACCUUUGCUACAUAAATT against D5Ertd577e,inactive: -2.08
20,GGAUCAAGUCCAAUCUAAATT against Cdh5,inactive: 0.388
21,GCAUGUGCUCCUUUUGUCGTT against C2a,inactive: 0.664
22,CCUUCAUGUGCAAGGUUGUTT against Ccr9,inactive: 1.34
23,GGUAUAUUCGGAAACCUAUTT against Abi1,inactive: -0.262
24,CCAAACACGACGUGAAGGUTT against D7Wsu128e,inactive: -0.165
25,GGUCUGGAUCUUGUGACCUTT against Tcstv1,inactive: -0.126
26,GCUUUCUUUAUAUUGACUGTT against Olfr692,inactive: -0.648
27,GGCAUGGACCAAAUAAAUATT against Snap23,inactive: -1.8

row,Sequence,z-score
1,GGAUGCAACUAAAAUCAGCTT against 2900093B09Rik,inactive: 0.383
2,GGGACUAAUGUUUUGCCUATT against Krt1-16,inactive: -1.46
3,GGAGACUGCUAUAUUGGCUTT against 1700092C17Rik,inactive: 1.22
4,GGACCUCUUCAAUUGGACATT against Fut4,inactive: 0.776
5,GCCUAAGCGAAAGUCUCUCTT against 5133400D11Rik,inactive: 0.878
6,GCUGAUGCGGAGAUUUUGGTT against Prkrir,inactive: 1.67
7,GGAGUUGAAACUGAAUACATT against Pramel7,inactive: 0.898
8,CGAUGUUAUCAGUUUCAUATT against Sema3d,inactive: 1.09
9,GGAGCUUAUCAACUACUAUTT against Cltc,inactive: -1.9
10,GGAUGGAUCAAUUCAACCATT against 3200001F09Rik,inactive: 0.351
11,GGUUUCAUAAAUUCAGUGGTT against 0610010K06Rik,inactive: -0.366
12,GGCAAUAACAUUCGGUAUUTT against Snrpd1,inactive: -0.222
13,CCUCCCUAAGGUUAUAGACTT against BC016076,inactive: 0.467
14,GGUGGCUAUUGUCUUCAAGTT against Ppp2r4,inactive: 0.609
15,GGAGCAUCCUUCAACUUCUTT against A230020G22Rik,inactive: 0.915
16,GGAUGCUGAUUGAAUUCUATT against Slc16a9,inactive: -0.513
17,GGCAAGAAAGGACCAAUGGTT against Cln8,inactive: -2.08
18,CCUUCUCAUAGUGAAAGUATT against Zfp95,inactive: 1.12
19,GGAUGCUAAAAAACCAAUGTT against Ndufs1,inactive: 1.01
20,GGUCGAACGAUUCUGCUGUTT against Slfn5,inactive: -0.209
21,GGCCAAGUUCUACAAUGACTT against Ptp4a3,inactive: -0.421
22,CGUGUUCAGCGUAGAAACUTT against Ttll1,inactive: -1.01
23,CGAAUGCUUGGAGAACAAUTT against Scube2,inactive: -0.0817
24,GGUCUCAAAUCACUAGAGUTT against Lum,inactive: 0.16
25,GGAGCGUGUGGAAGAAAAATT against Nedd8,inactive: -3.07
26,GGAAAACUAGUGUUGCUAUTT against Ptbp2,inactive: -0.614
27,GGUAGUUGGGACGAUCAUATT against 3110070M22Rik,inactive: -1.48

row,Sequence,z-score
1,GGGAGUUAAACUUCUCUGCTT against Tlr13,inactive: -1.15
2,GGAGAUGACAGAUGACCUUTT against Glyat,inactive: 0.023
3,GGUAUCCUGAUUGUUGAGUTT against 4930417G10Rik,inactive: 0.971
4,GCCAAAUCUGCGUGAAUUATT against Lrp8,inactive: -0.945
5,GGCUCAAGUUACUUGCUAUTT against Fras1,inactive: 0.402
6,GCGACCUUAGACAUUUGCATT against Prkrip1,inactive: 0.888
7,GGAAAAUAAGCUAAGGAAGTT against Peg12,inactive: 0.226
8,GGCUAAACCUACAAUAUGUTT against Tnrc9,inactive: -0.181
9,GCCUGUUUACGGUUUUUCUTT against Prkab2,inactive: 0.919
10,CCUAUCUUUACCACAUAGATT against 9030624J02Rik,inactive: -0.939
11,GGAGAGGUGGUAUUGUUGGTT against Olfr1297,inactive: 0.686
12,GGUCUGAUACCUCAUUCCATT against Il22ra2,inactive: 0.26
13,GGCUGGUCAAAAUUUGGAATT against Cdca2,inactive: 0.406
14,GCCUUUGCACAGUUUGGACTT against BC002059,inactive: -0.0138
15,CCCUGACAAUCUUUAUUUCTT against Olfr883,inactive: 0.676
16,GGAUGGACAUCCAAGCAGGTT against Fabp9,inactive: -0.506
17,GCGGUUAUAAUGGGACCAUTT against Knsl7,inactive: 0.837
18,GGUCUGUAACUGGUUCAUCTT against Tgif,inactive: -2.58
19,GGAGAUGAAGUGGACAGACTT against Anapc13,inactive: -2.22
20,GGAUGUCUGACUCAGGUCUTT against Olfr829,inactive: 0.731
21,GGAUCUUCCCGUGAACAUCTT against Cndp1,inactive: 2.08
22,CGAACAGAUAUUAUGUCAUTT against 1810009M01Rik,inactive: 1.34
23,GCGAGUGUUUCUCUUGGGATT against Trpm5,inactive: -0.223
24,GGUAGAGCAAUUUCUAACCTT against BC034099,inactive: -0.839
25,CGAAUACUUGAUGUCCAUGTT against D230010M03Rik,inactive: 0.89
26,GGUCUCAGUUUCUCAGAAUTT against Siglecl1,inactive: 2.46
27,GCUAGCUAAUCCUUGUUUATT against D130060C09Rik,inactive: 1.4

# Part of the list above in another layout.
row | Sequence | z-score
21 | GGCCAAGUUCUACAAUGACTT against Ptp4a3 | inactive: -0.421
22 | CGUGUUCAGCGUAGAAACUTT against Ttll1 | inactive: -1.01
23 | CGAAUGCUUGGAGAACAAUTT against Scube2 | inactive: -0.0817
24 | GGUCUCAAAUCACUAGAGUTT against Lum | inactive: 0.16
25 | GGAGCGUGUGGAAGAAAAATT against Nedd8 | inactive: -3.07
26 | GGAAAACUAGUGUUGCUAUTT against Ptbp2 | inactive: -0.614
27 | GGUAGUUGGGACGAUCAUATT against 3110070M22Rik | inactive: -1.48
1 | GGGAGUUAAACUUCUCUGCTT against Tlr13 | inactive: -1.15
2 | GGAGAUGACAGAUGACCUUTT against Glyat | inactive: 0.023
3 | GGUAUCCUGAUUGUUGAGUTT against 4930417G10Rik | inactive: 0.971
4 | GCCAAAUCUGCGUGAAUUATT against Lrp8 | inactive: -0.945
5 | GGCUCAAGUUACUUGCUAUTT against Fras1 | inactive: 0.402
6 | GCGACCUUAGACAUUUGCATT against Prkrip1 | inactive: 0.888
7 | GGAAAAUAAGCUAAGGAAGTT against Peg12 | inactive: 0.226
8 | GGCUAAACCUACAAUAUGUTT against Tnrc9 | inactive: -0.181
9 | GCCUGUUUACGGUUUUUCUTT against Prkab2 | inactive: 0.919
10 | CCUAUCUUUACCACAUAGATT against 9030624J02Rik | inactive: -0.939
11 | GGAGAGGUGGUAUUGUUGGTT against Olfr1297 | inactive: 0.686
12 | GGUCUGAUACCUCAUUCCATT against Il22ra2 | inactive: 0.26
13 | GGCUGGUCAAAAUUUGGAATT against Cdca2 | inactive: 0.406
14 | GCCUUUGCACAGUUUGGACTT against BC002059 | inactive: -0.0138
15 | CCCUGACAAUCUUUAUUUCTT against Olfr883 | inactive: 0.676

# The list continues.

row,Sequence,z-score
1,GUCAUGCCAGCAGAAAUGCTT against Sprr2j,inactive: -1.55
2,GGAAUUUUACACUUUACCUTT against Klhl11,inactive: 1.08
3,GGCUCACUUUAUGUCGUGUTT against Apg5l,inactive: -0.541
4,GGAAAAACUGCUAGAUCUATT against As3mt,inactive: 0.457
5,GCUACGUGAAGCUAUAAACTT against 4930447C04Rik,inactive: 0.844
6,CCAUAGAACCGUCCUAAUUTT against Tbx3,inactive: 0.5
7,GCUUUCUGAAGUAGCAAAGTT against Nit2,inactive: 1.67
8,GCUGCACCAUGAAUGAGUCTT against Il4,inactive: 1.15
9,CCACUCACCCAGAUAGGUATT against AI413582,inactive: 1.61
10,GCACCCGAACAUCAUUGCGTT against Map3k9,inactive: 0.469
11,GGAUCAGGCCCAACUUUAATT against Glra1,inactive: -1.81
12,GGAUCUGAAGCUGAUUACATT against AI586120,inactive: 0.211
13,GCCGUUUCGUGUGGUAUUUTT against Tm4sf1,inactive: -2.67
14,GGAAACAUGUCCACACUGCTT against 2700062C07Rik,inactive: -0.301
15,GCAUGUGACUCCAUAUAAATT against Cldn15,inactive: -0.529
16,GGUGGAGUACUUGUGUGACTT against Suv39h2,inactive: 1.87
17,GGCUGUGUGAAUUUCAUGGTT against Reln,inactive: -0.322
18,GGCAAAAUGAAGAAGCUGATT against Hdac6,inactive: 0.864
19,GGUCAAGGCUCACUCCAAATT against Pte2b,inactive: -0.391
20,CCAACCUAUAAGUUAAUGATT against Mrps22,inactive: -0.953
21,GGCAUCAAUGAGUUCGCAUTT against Dnb5,inactive: 1.62
22,GGCAUAUCCAGAUAAGACCTT against Tacc1,inactive: 1.36
23,GCUAGAACUCGAUGUGGAUTT against Mapk8ip2,inactive: -0.321
24,GGACAAACAUGGAAGCGUGTT against Itga2b,inactive: 0.435
